The source of these data is publication PMC3592802.

Sequences of proteins named here, by UniProt entry; tags and fusion partners are left off. A change or cut given only in a name is not applied to a line headed by its entry.
UniProt P09215: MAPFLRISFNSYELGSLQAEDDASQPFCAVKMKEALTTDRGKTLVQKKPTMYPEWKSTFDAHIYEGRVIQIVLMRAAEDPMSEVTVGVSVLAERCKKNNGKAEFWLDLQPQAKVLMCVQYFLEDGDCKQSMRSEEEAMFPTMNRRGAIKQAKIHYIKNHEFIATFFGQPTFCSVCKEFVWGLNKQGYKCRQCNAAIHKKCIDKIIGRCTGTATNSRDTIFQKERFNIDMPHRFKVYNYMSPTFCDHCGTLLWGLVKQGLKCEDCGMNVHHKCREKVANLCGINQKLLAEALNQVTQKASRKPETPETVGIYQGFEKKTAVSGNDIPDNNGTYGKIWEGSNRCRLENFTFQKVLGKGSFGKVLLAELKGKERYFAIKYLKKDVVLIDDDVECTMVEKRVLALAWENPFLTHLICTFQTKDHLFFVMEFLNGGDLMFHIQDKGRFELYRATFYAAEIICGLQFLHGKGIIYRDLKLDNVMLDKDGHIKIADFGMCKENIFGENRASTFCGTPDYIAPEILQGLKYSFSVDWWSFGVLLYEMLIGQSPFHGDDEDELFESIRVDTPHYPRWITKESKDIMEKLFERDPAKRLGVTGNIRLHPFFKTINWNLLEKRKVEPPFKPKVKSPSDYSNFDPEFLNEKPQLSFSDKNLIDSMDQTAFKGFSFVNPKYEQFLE
UniProt P70478: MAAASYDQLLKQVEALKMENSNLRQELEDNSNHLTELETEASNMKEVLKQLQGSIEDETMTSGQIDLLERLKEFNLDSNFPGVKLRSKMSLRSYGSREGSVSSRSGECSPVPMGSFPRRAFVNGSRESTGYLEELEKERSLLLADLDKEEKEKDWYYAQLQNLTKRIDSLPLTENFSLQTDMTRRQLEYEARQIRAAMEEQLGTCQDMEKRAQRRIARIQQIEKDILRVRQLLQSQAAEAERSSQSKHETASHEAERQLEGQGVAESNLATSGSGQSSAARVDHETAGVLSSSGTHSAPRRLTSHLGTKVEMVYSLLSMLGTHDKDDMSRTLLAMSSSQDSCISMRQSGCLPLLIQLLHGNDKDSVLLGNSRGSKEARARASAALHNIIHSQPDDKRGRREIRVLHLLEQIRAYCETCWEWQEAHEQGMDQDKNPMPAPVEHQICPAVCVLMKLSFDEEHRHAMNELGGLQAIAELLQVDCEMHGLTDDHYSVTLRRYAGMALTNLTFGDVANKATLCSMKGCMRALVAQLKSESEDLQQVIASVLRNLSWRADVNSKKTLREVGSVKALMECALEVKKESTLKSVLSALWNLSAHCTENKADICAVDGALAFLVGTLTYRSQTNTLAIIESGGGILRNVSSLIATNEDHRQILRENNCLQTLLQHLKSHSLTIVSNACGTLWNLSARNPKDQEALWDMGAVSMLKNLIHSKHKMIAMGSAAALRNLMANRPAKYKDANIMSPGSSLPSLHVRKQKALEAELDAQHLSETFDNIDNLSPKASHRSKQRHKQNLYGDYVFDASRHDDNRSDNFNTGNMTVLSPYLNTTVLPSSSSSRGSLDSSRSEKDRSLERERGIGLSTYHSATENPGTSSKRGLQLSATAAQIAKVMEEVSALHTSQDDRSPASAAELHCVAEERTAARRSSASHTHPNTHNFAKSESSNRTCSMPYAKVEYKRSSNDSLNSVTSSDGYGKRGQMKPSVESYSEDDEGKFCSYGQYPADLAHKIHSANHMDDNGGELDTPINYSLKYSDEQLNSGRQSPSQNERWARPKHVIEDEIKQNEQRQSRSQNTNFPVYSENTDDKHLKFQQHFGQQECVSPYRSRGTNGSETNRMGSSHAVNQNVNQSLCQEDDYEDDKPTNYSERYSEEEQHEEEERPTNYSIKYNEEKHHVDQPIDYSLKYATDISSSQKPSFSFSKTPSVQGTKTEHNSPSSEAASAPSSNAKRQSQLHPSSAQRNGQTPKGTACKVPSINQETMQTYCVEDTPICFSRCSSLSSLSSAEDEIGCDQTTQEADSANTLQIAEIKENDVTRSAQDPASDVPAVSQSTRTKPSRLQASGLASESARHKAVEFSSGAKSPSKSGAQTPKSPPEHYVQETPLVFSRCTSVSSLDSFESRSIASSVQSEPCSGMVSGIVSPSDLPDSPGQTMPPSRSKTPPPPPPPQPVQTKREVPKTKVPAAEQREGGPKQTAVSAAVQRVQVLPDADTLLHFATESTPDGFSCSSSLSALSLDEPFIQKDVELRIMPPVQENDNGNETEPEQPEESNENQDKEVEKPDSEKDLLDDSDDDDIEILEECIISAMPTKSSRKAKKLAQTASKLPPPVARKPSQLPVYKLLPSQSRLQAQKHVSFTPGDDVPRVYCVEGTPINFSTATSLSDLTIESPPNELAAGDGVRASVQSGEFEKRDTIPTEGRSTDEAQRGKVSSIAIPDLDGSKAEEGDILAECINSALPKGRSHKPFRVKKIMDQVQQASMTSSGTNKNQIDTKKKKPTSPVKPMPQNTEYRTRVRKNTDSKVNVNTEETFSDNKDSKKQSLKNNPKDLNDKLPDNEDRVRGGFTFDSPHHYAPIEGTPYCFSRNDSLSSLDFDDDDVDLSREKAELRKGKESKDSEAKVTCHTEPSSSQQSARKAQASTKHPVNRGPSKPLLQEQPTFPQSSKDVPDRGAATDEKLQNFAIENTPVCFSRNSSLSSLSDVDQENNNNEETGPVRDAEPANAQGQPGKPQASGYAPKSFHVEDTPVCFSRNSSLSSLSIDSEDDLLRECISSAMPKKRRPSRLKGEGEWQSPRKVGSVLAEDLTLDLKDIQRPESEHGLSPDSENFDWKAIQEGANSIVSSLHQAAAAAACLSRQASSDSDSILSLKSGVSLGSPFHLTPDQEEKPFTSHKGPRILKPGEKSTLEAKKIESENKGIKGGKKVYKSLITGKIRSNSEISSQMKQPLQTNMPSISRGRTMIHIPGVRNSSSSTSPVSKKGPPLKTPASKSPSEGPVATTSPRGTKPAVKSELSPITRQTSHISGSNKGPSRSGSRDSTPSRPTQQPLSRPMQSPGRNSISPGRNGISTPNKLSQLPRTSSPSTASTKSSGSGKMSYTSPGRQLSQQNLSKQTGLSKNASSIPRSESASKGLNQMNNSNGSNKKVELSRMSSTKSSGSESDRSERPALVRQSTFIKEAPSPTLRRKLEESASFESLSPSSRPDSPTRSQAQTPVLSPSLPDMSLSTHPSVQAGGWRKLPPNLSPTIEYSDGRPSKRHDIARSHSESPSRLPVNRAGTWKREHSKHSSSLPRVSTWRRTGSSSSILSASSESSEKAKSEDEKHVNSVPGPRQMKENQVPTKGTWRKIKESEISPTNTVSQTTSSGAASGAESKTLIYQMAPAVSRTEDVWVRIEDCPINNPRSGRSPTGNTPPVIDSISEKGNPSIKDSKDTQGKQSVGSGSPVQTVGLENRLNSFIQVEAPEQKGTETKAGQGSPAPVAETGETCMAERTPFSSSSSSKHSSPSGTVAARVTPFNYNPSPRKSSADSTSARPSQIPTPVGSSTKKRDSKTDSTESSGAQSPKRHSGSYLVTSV
UniProt P25054: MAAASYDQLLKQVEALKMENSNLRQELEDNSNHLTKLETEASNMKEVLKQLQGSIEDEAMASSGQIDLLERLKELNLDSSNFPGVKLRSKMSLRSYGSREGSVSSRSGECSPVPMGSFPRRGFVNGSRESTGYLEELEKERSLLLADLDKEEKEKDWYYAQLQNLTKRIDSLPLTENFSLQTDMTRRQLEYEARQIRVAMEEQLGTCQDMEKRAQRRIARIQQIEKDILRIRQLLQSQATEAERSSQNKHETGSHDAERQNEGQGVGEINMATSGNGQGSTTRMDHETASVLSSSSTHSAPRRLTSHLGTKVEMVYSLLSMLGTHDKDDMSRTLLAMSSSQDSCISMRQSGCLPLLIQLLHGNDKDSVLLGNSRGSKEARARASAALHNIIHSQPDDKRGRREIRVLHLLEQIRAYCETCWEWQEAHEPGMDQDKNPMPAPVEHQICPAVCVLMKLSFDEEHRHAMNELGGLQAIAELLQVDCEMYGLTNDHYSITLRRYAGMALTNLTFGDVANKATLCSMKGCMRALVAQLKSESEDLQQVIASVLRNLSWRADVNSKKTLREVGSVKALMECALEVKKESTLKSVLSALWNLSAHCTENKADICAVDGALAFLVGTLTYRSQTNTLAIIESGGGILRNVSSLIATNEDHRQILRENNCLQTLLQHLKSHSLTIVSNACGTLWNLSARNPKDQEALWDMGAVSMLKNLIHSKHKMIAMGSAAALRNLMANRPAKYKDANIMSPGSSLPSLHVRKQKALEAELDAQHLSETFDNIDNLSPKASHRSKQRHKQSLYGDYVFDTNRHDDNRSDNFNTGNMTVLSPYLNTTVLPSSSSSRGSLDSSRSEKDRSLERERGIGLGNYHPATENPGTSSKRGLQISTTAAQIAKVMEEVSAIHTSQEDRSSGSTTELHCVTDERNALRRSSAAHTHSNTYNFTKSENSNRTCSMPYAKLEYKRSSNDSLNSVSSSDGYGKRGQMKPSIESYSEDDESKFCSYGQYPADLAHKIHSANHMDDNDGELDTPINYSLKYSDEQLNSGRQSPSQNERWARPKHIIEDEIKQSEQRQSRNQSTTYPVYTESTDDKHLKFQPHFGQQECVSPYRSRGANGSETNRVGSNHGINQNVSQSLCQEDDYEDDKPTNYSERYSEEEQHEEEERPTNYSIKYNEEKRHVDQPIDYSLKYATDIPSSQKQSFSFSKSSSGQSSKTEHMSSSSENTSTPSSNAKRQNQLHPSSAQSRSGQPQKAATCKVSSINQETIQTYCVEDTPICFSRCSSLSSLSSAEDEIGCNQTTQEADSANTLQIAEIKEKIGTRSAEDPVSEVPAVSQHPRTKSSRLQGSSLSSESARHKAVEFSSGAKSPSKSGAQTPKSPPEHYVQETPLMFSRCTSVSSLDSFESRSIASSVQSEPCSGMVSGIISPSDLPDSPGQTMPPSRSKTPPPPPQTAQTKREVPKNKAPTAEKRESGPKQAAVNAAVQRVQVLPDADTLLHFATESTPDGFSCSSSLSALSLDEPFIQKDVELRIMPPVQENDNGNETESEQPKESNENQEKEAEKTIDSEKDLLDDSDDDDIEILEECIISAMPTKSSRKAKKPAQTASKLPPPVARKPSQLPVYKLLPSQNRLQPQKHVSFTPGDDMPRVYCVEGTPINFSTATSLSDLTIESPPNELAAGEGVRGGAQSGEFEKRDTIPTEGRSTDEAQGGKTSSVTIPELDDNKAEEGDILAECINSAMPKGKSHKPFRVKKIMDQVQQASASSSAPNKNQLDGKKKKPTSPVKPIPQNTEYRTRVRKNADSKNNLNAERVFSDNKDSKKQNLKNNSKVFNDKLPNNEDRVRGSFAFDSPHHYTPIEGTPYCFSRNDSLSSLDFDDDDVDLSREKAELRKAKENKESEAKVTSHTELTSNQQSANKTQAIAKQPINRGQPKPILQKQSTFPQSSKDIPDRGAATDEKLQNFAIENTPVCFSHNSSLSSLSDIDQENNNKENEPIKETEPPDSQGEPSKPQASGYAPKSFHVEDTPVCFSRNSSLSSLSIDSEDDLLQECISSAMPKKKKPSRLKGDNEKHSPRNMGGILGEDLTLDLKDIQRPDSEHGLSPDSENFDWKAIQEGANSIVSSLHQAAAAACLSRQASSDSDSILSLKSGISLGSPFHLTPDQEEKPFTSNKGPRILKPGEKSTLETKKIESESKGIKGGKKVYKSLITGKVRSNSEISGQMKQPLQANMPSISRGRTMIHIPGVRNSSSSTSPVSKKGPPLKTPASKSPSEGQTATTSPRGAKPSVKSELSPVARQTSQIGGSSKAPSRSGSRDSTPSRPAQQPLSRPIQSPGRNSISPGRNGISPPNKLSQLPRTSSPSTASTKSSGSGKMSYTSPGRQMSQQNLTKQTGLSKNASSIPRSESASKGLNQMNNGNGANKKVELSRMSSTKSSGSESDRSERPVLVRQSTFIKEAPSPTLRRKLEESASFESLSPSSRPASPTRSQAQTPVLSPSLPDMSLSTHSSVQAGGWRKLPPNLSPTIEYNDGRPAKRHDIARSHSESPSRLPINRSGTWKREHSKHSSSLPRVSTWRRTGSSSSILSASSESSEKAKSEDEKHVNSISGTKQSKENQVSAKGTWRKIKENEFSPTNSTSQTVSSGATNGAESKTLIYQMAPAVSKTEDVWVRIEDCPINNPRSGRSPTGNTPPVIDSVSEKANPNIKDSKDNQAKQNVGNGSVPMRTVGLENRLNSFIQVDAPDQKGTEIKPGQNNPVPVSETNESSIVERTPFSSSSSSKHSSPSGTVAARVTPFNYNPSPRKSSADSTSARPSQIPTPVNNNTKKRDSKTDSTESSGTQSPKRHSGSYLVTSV

No constants are given. Whether binding was seen depends on the method and setting. In cells and extracts the contact can be indirect. Some entries that bind do so weakly or less than the wild type.

Assay in all cases: co-IP; endogenous proteins from total cell extracts (lysis: 50 mM Tris, 150 mM NaCl, 0.5% Triton X-100, pH 7.5; 1 mg/ml extract); 2 µg/ml primary antibody overnight at 4°C, protein A-sepharose 2 h; washes with 0.6 M NaCl pH 8.3 and 0.15 M NaCl pH 7.5; Western blot of the precipitates
For test [1], the target named is Protein kinase C delta (PKCδ) from IEC-18 cells (rat (endogenous in IEC-18)) (UniProt P09215).
Test [2] concerns the target Adenomatous polyposis coli (APC) protein, normal, from IEC-18 cells (rat (endogenous in IEC-18)) (UniProt P70478).
For test [3], the target named is Adenomatous polyposis coli (APC) protein, wild type, from RKO cells (human (endogenous in RKO)) (UniProt P25054).

With “Adenomatous polyposis coli (APC) protein, normal, from IEC-18 cells (from UniProt P70478 1-2842)”, the binding entry in test [1] is “binds”.

In the case of “Protein kinase C delta (PKCδ) from IEC-18 cells (from UniProt P09215 1-673) (enzyme)”, the binding entry in test [2] is on record as “binds”.

With “Protein kinase C delta (PKCδ) from human colon tumor cell lines (from UniProt Q05655 1-676) (enzyme)”, in test [3], the binding entry was “binds”.

As for “Protein kinase C epsilon (PKCε) from IEC-18 cells (from UniProt P09216 1-737) (enzyme)”, the binding result in test [2] is on record as “no binding”.

In the case of “Protein kinase C epsilon (PKCε) from human colon tumor cell lines (from UniProt Q02156 1-737) (enzyme)”, the binding entry in test [3] is “no binding”.
